This is an account of results in PMC11637378, “Optogenetic screening of MCT1 activity implicates a cluster of non-steroidal anti-inflammatory drugs (NSAIDs) as inhibitors of lactate transport” (PLOS ONE, 2024).

The assay has as its system parent strain (SAWy518). The assay is described as follows: microbe, parasite or virus in culture. Also on record: species or system Saccharomyces cerevisiae SAWy518; Off-target growth counter-screen, OD600 as per cent of untreated wells, strain lacking MCT1. The note with it: 18.5 h; sheet Primary Screen - final;; off-target growth of parent strain, about 18 h. The protocol: Cells were grown for 18 hours prior to OD measurement. Fill represents manual compound grouping based on compound class or target. OD600 is reported in Tecan units. […] The drug library used in this study for the initial screen and rescreen was provided by the Small Molecule Screening Center at Princeton University, through a collaboration with Dr. Hahn Kim. […] Follow-up analysis (IC50 determinations) on library compounds was performed using compounds purchased from outside sources. […] Stocks were then diluted 100-fold into media containing 0.01 OD600 inoculation of yeast, to achieve the final concentrations listed. Where compounds were added manually (for example 10 μM AZD3965 addition) stock concentrations were diluted by a factor of 100-fold regardless of scale, resulting in a final concentration of 1% v/v DMSO which is well tolerated by yeast.

In general, viability refers to the share of living cells, or the viability signal relative to a control.

With `CC(C)c1c(C(=O)Nc2ccccc2)c(-c2ccccc2)c(-c2ccc(F)cc2)n1CC[C@@H](O)C[C@@H](O)CC(=O)O` [Atorvastatin], the viability at 10 µM was 90.5%.
